In paper PMC9947422:
No constants are given. Whether binding was seen depends on the method and setting. In cells and extracts the contact can be indirect. Some entries that bind do so weakly or less than the wild type. For some of these results: Tags and fused reporters may be left off the sequences shown.

Chains of the proteins cited; added tags and fusions are not shown. Residues count along the entry.
UniProt Q8NE86, residues 51-351: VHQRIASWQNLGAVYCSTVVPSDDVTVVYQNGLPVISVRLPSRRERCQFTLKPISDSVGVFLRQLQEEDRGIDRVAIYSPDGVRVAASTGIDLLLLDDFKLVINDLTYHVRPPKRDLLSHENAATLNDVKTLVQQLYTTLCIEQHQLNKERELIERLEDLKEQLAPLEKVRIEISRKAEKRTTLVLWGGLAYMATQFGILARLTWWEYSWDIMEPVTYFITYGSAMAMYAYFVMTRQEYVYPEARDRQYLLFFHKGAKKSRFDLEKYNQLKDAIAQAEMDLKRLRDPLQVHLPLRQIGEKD

Experiments:
[1] = biological target: T1, Mitochondrial methionyl-tRNA synthetase (MARS2), endogenous in A549 cells (human (endogenous in A549)) (UniProt Q96GW9); experiment: co-IP; endogenous IP from A549 lysate (25 mM Tris, 15 mM NaCl, 1 mM EDTA, 1% NP-40, 5% glycerol, pH 7.4); anti-MARS2 or anti-MCU antibody overnight at 4 °C, Protein-A Agarose, Western blot
T1 sequence: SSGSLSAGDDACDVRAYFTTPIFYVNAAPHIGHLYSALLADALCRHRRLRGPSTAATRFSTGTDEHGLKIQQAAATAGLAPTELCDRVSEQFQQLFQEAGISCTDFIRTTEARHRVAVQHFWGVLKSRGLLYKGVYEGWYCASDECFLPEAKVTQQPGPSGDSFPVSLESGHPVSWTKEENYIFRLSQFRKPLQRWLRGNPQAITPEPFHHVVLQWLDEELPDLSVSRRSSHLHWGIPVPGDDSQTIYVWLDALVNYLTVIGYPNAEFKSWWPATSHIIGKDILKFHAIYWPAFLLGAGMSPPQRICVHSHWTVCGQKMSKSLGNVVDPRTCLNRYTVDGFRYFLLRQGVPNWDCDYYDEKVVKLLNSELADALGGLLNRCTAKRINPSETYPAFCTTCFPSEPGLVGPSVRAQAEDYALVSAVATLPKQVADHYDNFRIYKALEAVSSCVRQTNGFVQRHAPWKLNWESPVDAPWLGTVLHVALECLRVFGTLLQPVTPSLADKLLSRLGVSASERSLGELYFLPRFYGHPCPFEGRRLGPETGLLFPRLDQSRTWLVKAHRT

[2] = biological target: T2, FLAG-MARS2 fusion protein (Flag-tagged MARS2 ORF from pCMV-Tag 2B-MARS2) (human) (UniProt Q96GW9); experiment: FRET or BRET; bead-associated FLAG-MARS2-MCU immunocomplex from HEK293T lysate labelled with secondary antibodies conjugated with Alexa Fluor 488 (MARS2) and Alexa Fluor 555 (MCU); 488 nm excitation, emission ratio 520 nm/570 nm; with L-methionine, L-histidine or L-homocysteine (0, 1.25 and 2.5 mM)
T2 sequence: T1 sequence

[3] = biological target: T2, FLAG-MARS2 fusion protein (Flag-tagged MARS2 ORF from pCMV-Tag 2B-MARS2) (human); experiment: co-IP; exogenous IP: lysate of HEK293T cells overexpressing Flag-MARS2 (150 mM NaCl, 25 mM HEPES-KOH pH 7.5, 0.5% Triton X-100), anti-FLAG M2 affinity gel 2 h at 4 °C; Western blot with anti-MCU antibody; beads also treated with L-methionine, L-histidine or L-homocysteine (0, 1.25 and 2.5 mM) for 2 h at 4 °C
[4] = biological target: Mitochondrial calcium uniporter (MCU), endogenous in A549 cells (human (endogenous in A549)) (UniProt Q8NE86); experiment: co-IP; endogenous IP from A549 lysate (25 mM Tris, 15 mM NaCl, 1 mM EDTA, 1% NP-40, 5% glycerol, pH 7.4); anti-MARS2 or anti-MCU antibody overnight at 4 °C, Protein-A Agarose, Western blot

Mitochondrial calcium uniporter (MCU), endogenous in A549 cells (from UniProt Q8NE86 51-351)
binding [1]: binds

Mitochondrial calcium uniporter (MCU), endogenous in HEK293T cells (from UniProt Q8NE86 51-351)
binding [2]: binds | binding [3]: binds

B1: Mitochondrial methionyl-tRNA synthetase (MARS2), endogenous in A549 cells (protein, UniProt Q96GW9 30-593)
chain: T1 sequence
binding [4]: binds
